Measured values reported in article PMC6056937.
These are yes or no findings as the source states them, for the method shown. Binding seen in cells or lysates may run through a third protein. Some entries that bind do so weakly or less than the wild type.

Protein sequences, listed by entry. Tags and fused reporters are not part of them.
UniProt P28482: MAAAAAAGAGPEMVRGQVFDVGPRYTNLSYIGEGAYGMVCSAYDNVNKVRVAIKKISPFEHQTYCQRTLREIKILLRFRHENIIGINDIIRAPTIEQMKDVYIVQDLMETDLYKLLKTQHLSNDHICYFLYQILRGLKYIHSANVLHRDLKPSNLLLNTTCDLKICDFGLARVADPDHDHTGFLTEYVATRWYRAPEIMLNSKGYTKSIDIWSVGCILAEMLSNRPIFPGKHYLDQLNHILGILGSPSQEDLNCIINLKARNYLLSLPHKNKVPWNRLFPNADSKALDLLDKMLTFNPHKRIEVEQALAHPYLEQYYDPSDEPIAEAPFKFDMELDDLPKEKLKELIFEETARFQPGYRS
UniProt P37802: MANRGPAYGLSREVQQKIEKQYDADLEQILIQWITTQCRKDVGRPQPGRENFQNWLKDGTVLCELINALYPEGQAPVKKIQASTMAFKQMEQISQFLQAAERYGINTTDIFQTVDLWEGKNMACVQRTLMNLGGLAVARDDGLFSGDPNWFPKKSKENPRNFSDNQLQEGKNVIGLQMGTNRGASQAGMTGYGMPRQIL

Molecular target: Flag-tagged ERK2 (UniProt P28482)
Test: co-IP; HEK293T cells co-transfected with GFP-transgelin-2 (wild-type or 29–31 aa truncated) and Flag-ERK2 for 48 h; immunoprecipitation by anti-Flag antibody, blot with anti-GFP antibody

binding: binds
Substance: GFP-tagged transgelin-2, wild-type (from UniProt P37802 1-199)
